Our source for the AC50 values is PubChem BioAssay AID493014 (National Center for Advancing Translational Sciences (NCATS), 2011).

The list shows a part of the results. These are further read-outs of the screen, such as a control signal, another cell line or another target. No call is given for them. Compounds called inactive in the main read-out are mostly missing here. The note in brackets gives the kind of curve behind each potency; many fits are weak.

This assay can be described thus: qHTS Assay to Find Inhibitors of Chronic Active B-Cell Receptor Signaling. The note with it: ABC-DLBCL IkBa-CBG/CBR reporter, luminescence ratio (green luciferase fused to IkBa over red control in TMD8 lymphoma cells), 4 h. The method, boiled down:
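Cell line TMD8 (human ABC DLBCL), stably expressing tet-inducible CBG68-IkBa fusion and CBR; IMDM/0.5% FBS; cpd up to 46 uM; dox induction, 4 h, 37C/5% CO2; dual luminescence; green/red ratio; MG132 control.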
Background: Quantitative high-throughput screening tests each substance at several concentrations.

[1] abbreviates: measured here: CBR red luminescence, cell number.
The mark [2] stands for this setting: measured here: IkBa-CBG green luminescence.

Take `Cc1cc(Cl)ccc1OCCCC(=O)N1CCOCC1`: the concentration at half-maximal activity (AC50) (commonly the concentration at which the activity in the assay is half-maximal) under setting [1] is 8.91 µM [rising, partial curve, poor fit]. Consider `CCc1nc(Nc2ccc(OC)cc2OC)c2oc3ccccc3c2n1`, for which, under setting [1], the AC50 was 17.8 µM [rising, single point]. Consider `CCC1=NN2C(=N)/C(=C\c3ccc(OCCOc4ccc(NC(C)=O)cc4)cc3)C(=O)N=C2S1`, for which the half-maximal activity concentration (AC50) under setting [1] is 11.2 µM [rising, partial curve, poor fit]. Consider `COc1ccccc1NC(=O)Nc1ccc2c(c1)CCC2`, for which the half-maximal activity concentration (AC50) under setting [1] was 17.8 µM [falling, single point]. Same read-out and setting: for `Cc1cc(OC(C)C(=O)NNC(=O)Nc2ccc(F)cc2F)cc(C)c1Cl` (stereo not drawn) the value was 35.5 µM [falling, single point]; for `N#CC1=C(N)C(C#N)(C#N)C2(C(=O)Nc3ccccc32)C2CCCC=C12` (stereo not drawn), 11.2 µM [falling, partial curve, poor fit]. Take `O=C(Nc1ccc2nc3n(c(=O)c2c1)CCCC3)c1cccc(F)c1`: the concentration at half-maximal activity (AC50) under setting [1] is 35.5 µM [falling, single point]. Consider `COc1ccc(C(CNc2ncnc3sccc23)N(C)C)cc1OC` (stereo not drawn), for which, under setting [1], the AC50 is 0.2 µM [falling, full curve, poor fit].

For the compound `C=CCn1c(=O)[nH]c2cc(C(=O)N3CC=C(c4ccccc4)CC3)ccc2c1=O`, the AC50 under setting [1] is 10 µM [falling, partial curve].

With `O=C(Cn1c(=O)oc2cc(S(=O)(=O)N3CCCCCC3)ccc21)NC1CCCCC1`, the AC50 under setting [1] was 29.1 µM [rising, single point]. For `Cc1ccc(NC(=O)c2cc3ccccc3o2)cc1`, the AC50 under setting [1] is 12.6 µM [falling, single point]. For `COc1ccc(-c2noc(C3CCCN(S(=O)(=O)c4cccc(Cl)c4C)C3)n2)cc1OC` (stereo not drawn), under setting [1], the AC50 is 35.5 µM [rising, partial curve, poor fit]. On to `CSc1ccccc1NC(=O)Nc1ccccc1Cl`, for which, under setting [1], the half-maximal activity concentration (AC50) was 7.08 µM [falling, full curve]. `COc1cccc2cc(C(=O)c3ccccc3)oc12`: under setting [1], the AC50 is 11.2 µM [falling, partial curve]. As to `O=C(CCl)Nc1cc(SCC(O)CO)cc([N+](=O)[O-])c1` (stereo not drawn), the concentration at half-maximal activity (AC50) under setting [1] was 8.91 µM [falling, partial curve]. `Cc1ccc2nc3sc(C(=O)N4CCOCC4)c(N)c3cc2c1`: the AC50 under setting [1] is 1.41 µM [falling, partial curve]. For the compound `Cc1cc(S(=O)(=O)Nc2c(NC3CCCCC3)c3ccccc3oc2=O)ccc1F`, the AC50 under setting [1] is 14.1 µM [falling, partial curve, poor fit]. As to `COc1ccc(C(=O)Nc2nc(N3C(=O)c4ccccc4C3=O)n(-c3ccccc3)n2)cc1`, the AC50 under setting [1] was 2.59 µM [falling, partial curve, poor fit].

With `Cc1cccc(C)c1OCC(=O)N/N=C/c1cccn1C`, the concentration at half-maximal activity (AC50) runs as follows: under setting [1], 25.9 µM [rising, single point]; under setting [2], 29.1 µM [falling, single point]. In the case of `CCc1c(C)sc(NC(=O)c2cccs2)c1C(N)=O`, under setting [1], the AC50 was 0.291 µM [rising, partial curve, poor fit]. In the case of `CCc1ccc(/C=N/NC(=S)NCCc2ccccc2)cc1`, under setting [1], the half-maximal activity concentration (AC50) was 29.1 µM [rising, single point]. Turning to `COc1cc(/C=N/NC(=Nc2ccc(C)cc2)c2nc3ccccc3s2)ccc1O`, the AC50 runs as follows: under setting [1], 7.31 µM [falling, partial curve]; under setting [2], 16.4 µM [rising, partial curve, poor fit]. As to `Cc1ccc2oc(=S)n(C)c2c1`, the AC50 under setting [1] is 29.1 µM [rising, single point]. Consider `O=C(CN1CCc2ccccc2C1)N1CCN(S(=O)(=O)c2ccccc2)CC1`, for which the concentration at half-maximal activity (AC50) under setting [1] was 6.51 µM [rising, single point]. For `N#C/C(=C\c1cccs1)Sc1nc2ccccc2s1`, under setting [1], the AC50 is 0.58 µM [rising, partial curve]. Turning to `CN(C)S(=O)(=O)c1ccc(C(=O)NNC(=O)C2COc3ccccc3O2)cc1` (stereo not drawn), under setting [1], the half-maximal activity concentration (AC50) was 7.94 µM [rising, partial curve, poor fit]. For `O=C(NC1CCCCC1)c1ccc(-c2ccccc2[N+](=O)[O-])o1`, under setting [1], the half-maximal activity concentration (AC50) is 35.5 µM [falling, single point]. Take `CSc1nc(N)nc(SCC(=O)C23CC4CC(CC(C4)C2)C3)c1C#N`: the AC50 under setting [1] is 20.6 µM [falling, single point] and the AC50 under setting [2] is 8.2 µM [rising, partial curve, poor fit]. Consider `CCn1nc(C)cc1-c1nnc(Sc2ncc([N+](=O)[O-])s2)n1C`, for which the half-maximal activity concentration (AC50) is, setting by setting: under setting [1], 5.62 µM [rising, partial curve, poor fit]; under setting [2], 5.01 µM [falling, single point]. Regarding `O=C(Nc1nc2ccc([N+](=O)[O-])cc2s1)c1ccc(S(=O)(=O)N2CCCc3ccccc32)cc1`, under setting [1], the AC50 is 0.224 µM [rising, full curve, poor fit]. `CN(C)CCCNC(=O)c1ccc(/C=N/O)nc1`: under setting [1], the half-maximal activity concentration (AC50) was 15.8 µM [falling, partial curve]. As for `CCOCCCNC(=O)C(NC(=O)c1ccc(=O)[nH]c1)c1ccc(Cl)cc1` (stereo not drawn), the concentration at half-maximal activity (AC50) under setting [1] is 0.651 µM [falling, partial curve, poor fit]. Turning to `Cc1c(C(=O)N2CC(C)OC(C)C2)sc2nc(-c3ccc(F)cc3)cn12` (stereo not drawn), the AC50 under setting [1] is 35.5 µM [falling, single point]. For the compound `O=C(CSc1ccccc1)NCc1ccccc1`, the AC50 under setting [1] was 35.5 µM [rising, single point]. On to `O=C(CSc1nc2cc(Cl)ccc2s1)NCC1CCCO1` (stereo not drawn), for which the AC50 under setting [1] was 29.1 µM [rising, partial curve, poor fit]. Turning to `Oc1ccc(Nc2nc(-c3cccnc3)cs2)cc1`, the concentration at half-maximal activity (AC50) by setting is: under setting [1], 15.8 µM [falling, single point]; under setting [2], 12.6 µM [falling, partial curve]. `COc1ccc(NC(=O)CN(C)C(=O)CCSc2ccc(C)cc2)cc1`: the AC50 under setting [1] was 29.1 µM [falling, single point].

With `COc1ccc(C2=NOC(C(=O)N(C)Cc3ccccc3)C2)cc1` (stereo not drawn), the AC50 under setting [1] was 17.8 µM [falling, partial curve, poor fit]. Still for that read-out and setting: for `CCc1cccc2c(-c3csc(=NC)n3C)c[nH]c12` the value was 28.2 µM [falling, single point]. Take `O=C1c2ccccc2C(Nc2ccc(S(=O)(=O)N3CCCCC3)cc2)N1Cc1ccco1` (stereo not drawn): the concentration at half-maximal activity (AC50) under setting [1] is 23.1 µM [falling, single point].

On to `CCCc1c(C(=O)OCC)sc(N)c1C#N`, for which, under setting [1], the AC50 is 0.0891 µM [falling, full curve, poor fit]. Turning to `O=S(=O)(c1cnc(Cl)c(Br)c1)N1CCc2ccccc21`, the AC50 under setting [1] is 7.94 µM [falling, partial curve, poor fit]. As to `CC(Cc1cccs1)NC(=O)c1cccc(Cl)c1` (stereo not drawn), the AC50 under setting [1] was 3.26 µM [rising, full curve, poor fit].

Regarding `CCCCn1c(SCc2ncc(-c3ccccc3)o2)nc2cc(S(N)(=O)=O)ccc21`, the concentration at half-maximal activity (AC50) under setting [1] was 35.5 µM [falling, single point].

On to `Cc1ccc(S(=O)(=O)Nc2ccc(NC(=O)CN3CCCCC3)cc2)cc1`, for which the concentration at half-maximal activity (AC50) under setting [1] was 29.1 µM [rising, single point]. Turning to `CCOc1ccccc1NC(=O)CSc1nnc(-c2cnccn2)n1C`, the AC50 under setting [1] is 17.8 µM [falling, single point]. In the case of `Cc1cc(C)nc(NC(=O)c2cc(-c3ccc(C)s3)nc3ccccc23)c1`, the AC50 under setting [1] is 1.03 µM [rising, full curve, poor fit]. In the case of `Cn1ncc(C#N)c1/N=C/N1CCCCCC1`, the half-maximal activity concentration (AC50) under setting [1] was 11.2 µM [falling, single point]. Still for that read-out and setting: with `COc1cc(OC)c(OC)cc1/C=N/n1c(-c2n[nH]c3c2CCC3)n[nH]c1=S` the figure was 1.41 µM [rising, full curve, poor fit]. `CCCc1cc(=O)oc2cc(OCc3ccc(C(=O)O)o3)ccc12`: under setting [1], the AC50 was 15.8 µM [falling, single point].

With `Cc1ccn2cc(C(=O)Nc3ccc4c(c3)OCCO4)nc2c1`, under setting [1], the AC50 is 25.1 µM [falling, single point]. As for `O=C(c1cc2cc(Br)ccc2oc1=O)N1CCN(c2ccccn2)CC1`, the AC50 under setting [1] was 35.5 µM [rising, single point]. As to `CCOC(=O)N1CCC(N2Cc3cccc(C(=O)Nc4ccc(F)cc4)c3C2=O)CC1`, the concentration at half-maximal activity (AC50) under setting [1] is 0.112 µM [falling, full curve, poor fit]. The same measure, in the same setting: with `COc1ccc(-c2noc(CCC(=O)NCCCN3CCC(Cc4ccccc4)CC3)n2)cc1` the figure was 16.4 µM [falling, single point]. As for `COC(=O)c1c(NC(=O)c2ccccc2)sc(Cc2ccccc2)c1C`, the AC50 under setting [1] is 23.1 µM [rising, single point]. `C(=N\Nc1nncc2ccccc12)/c1ccccn1`: under setting [1], the AC50 is 10 µM [falling, partial curve]. `COc1cccc(/C=C2\SC(=O)N(CC(=O)NCCCn3ccnc3)C2=O)c1`: under setting [1], the concentration at half-maximal activity (AC50) was 15.8 µM [falling, single point].

On to `COc1ccc(C(=O)c2c3ccc(C(F)(F)F)cc3[n+]([O-])n2CCCC(N)=O)cc1`, for which the AC50 under setting [1] was 14.6 µM [rising, partial curve, poor fit]. In the case of `CCOC(=O)C1CCN(C(=O)CSc2cc(=O)n(CC)c3ccccc23)CC1`, the AC50 under setting [2] was 20.6 µM [falling, partial curve, poor fit].

On to `O=S(=O)(c1cccc(-c2n[nH]c(=S)n2Cc2ccccc2)c1)N1CCOCC1`, for which the AC50 under setting [1] was 35.5 µM [rising, single point]. In the case of `C=CCOc1c(Br)cc(/C=C2/NC(=S)N(C(C)=O)C2=O)cc1OC`, the AC50 under setting [1] is 14.1 µM [rising, single point]. Turning to `Cc1ccc(/C=C/c2nc3sc(C(=O)O)c(C)c3c(=O)[nH]2)cc1[N+](=O)[O-]`, under setting [1], the half-maximal activity concentration (AC50) is 0.355 µM [falling, full curve, poor fit].

With `CCOc1ccc(C2=Nn3c(nnc3-c3ccccc3OC)SC2)cc1`, the concentration at half-maximal activity (AC50) under setting [2] was 0.282 µM [falling, full curve].
